Experimental data published in patent US20200317791A1.
These are yes or no findings as the source states them, for the method shown. For some of these results: Binding can be weak; no strength is given.

Tests used:
Cw15_C*15:02 (human) = test: LABScreen beads, 10 µg/ml antibody
Cw4_C*04:01 (human) = test: LABScreen beads, 10 µg/ml antibody
Cw2_C*02:02 (human) = test: LABScreen beads, 10 µg/ml antibody
Cw16_C*16:01 (human) = test: LABScreen beads, 10 µg/ml antibody
[1] = target: Cw6_C*06:02 (human), C*06:0; test: LABScreen beads, 10 µg/ml antibody
Cw5_C*05:01 (human) = test: LABScreen beads, 10 µg/ml antibody
Cw14_C*14:02 (human) = test: LABScreen beads, 10 µg/ml antibody
Cw10_C*03:04 (human) = test: LABScreen beads, 10 µg/ml antibody
[2] = target: Cw7_C*07:02 (human), C*07:0; test: LABScreen beads, 10 µg/ml antibody
Cw17_C*17:01 (human) = test: LABScreen beads, 10 µg/ml antibody
Cw9_C*03:03 (human) = test: LABScreen beads, 10 µg/ml antibody
Cw12_C*12:03 (human) = test: LABScreen beads, 10 µg/ml antibody
Cw18_C*18:02 (human) = test: LABScreen beads, 10 µg/ml antibody
Cw10_C*03:02 (human) = test: LABScreen beads, 10 µg/ml antibody
Cw8_C*08:01 (human) = test: LABScreen beads, 10 µg/ml antibody
Cw1_C*01:02 (human) = test: LABScreen beads, 10 µg/ml antibody
B62,Bw6_B*15:01 (human) = test: LABScreen beads
B54,Bw6_B*54:01 (human) = test: LABScreen beads
B44,Bw4_B*44:03 (human) = test: LABScreen beads
B42,Bw6_B*42:01 (human) = test: LABScreen beads
B35,Bw6_B*35:01 (human) = test: LABScreen beads
[3] = target: B27,Bw4_B*27:05 (human), B*27:0; test: LABScreen beads
B51,Bw4_B*51:01 (human) = test: LABScreen beads
B65,Bw6_B*14:02 (human) = test: LABScreen beads
B72,Bw6_B*15:03 (human) = test: LABScreen beads
B71,Bw6_B*15:10 (human) = test: LABScreen beads
B78,Bw6_B*78:01 (human) = test: LABScreen beads
B8,Bw6_B*08:01 (human) = test: LABScreen beads
B45,Bw6_B*45:01 (human) = test: LABScreen beads
B61,Bw6_B*40:06 (human) = test: LABScreen beads
B38,Bw4_B*38:01 (human) = test: LABScreen beads
B57,Bw4_B*57:03 (human) = test: LABScreen beads
B41,Bw6_B*41:01 (human) = test: LABScreen beads
B61,Bw6_B*40:02 (human) = test: LABScreen beads
B81,Bw6_B*81:01 (human) = test: LABScreen beads
B18,Bw6_B*18:01 (human) = test: LABScreen beads
B37,Bw4_B*37:01 (human) = test: LABScreen beads
B44,Bw4_B*44:02 (human) = test: LABScreen beads
B64,Bw6_B*14:01 (human) = test: LABScreen beads
B49,Bw4_B*49:01 (human) = test: LABScreen beads
B63,Bw4_B*15:16 (human) = test: LABScreen beads
B56,Bw6_B*56:01 (human) = test: LABScreen beads
B59,Bw4_B*59:01 (human) = test: LABScreen beads
B77,Bw4_B*15:13 (human) = test: LABScreen beads
B82,Bw6_B*82:01 (human) = test: LABScreen beads
B39,Bw6_B*39:01 (human) = test: LABScreen beads
B58,Bw4_B*58:01 (human) = test: LABScreen beads
B60,Bw6_B*40:01 (human) = test: LABScreen beads
B48,Bw6_B*48:01 (human) = test: LABScreen beads
B53,Bw4_B*53:01 (human) = test: LABScreen beads
B50,Bw6_B*50:01 (human) = test: LABScreen beads
B75,Bw6_B*15:11 (human) = test: LABScreen beads
B27,Bw6_B*27:08 (human) = test: LABScreen beads
B13,Bw4_B*13:02 (human) = test: LABScreen beads
B75,Bw6_B*15:02 (human) = test: LABScreen beads
B67,Bw6_B*67:01 (human) = test: LABScreen beads
B51,Bw4_B*51:02 (human) = test: LABScreen beads
B52,Bw4_B*52:01 (human) = test: LABScreen beads
B55,Bw6_B*55:01 (human) = test: LABScreen beads
[4] = target: B7,Bw6_B*07:02 (human), B*07:0; test: LABScreen beads
B57,Bw4_B*57:01 (human) = test: LABScreen beads
B13,Bw4_B*13:01 (human) = test: LABScreen beads
B47,Bw4_B*47:01 (human) = test: LABScreen beads
B76,Bw6_B*15:12 (human) = test: LABScreen beads

binding (Cw15_C*15:02 (human)): binds | binding (Cw4_C*04:01 (human)): binds | binding (Cw2_C*02:02 (human)): binds | binding (Cw16_C*16:01 (human)): binds | binding [1]: binds | binding (Cw5_C*05:01 (human)): binds | binding (Cw14_C*14:02 (human)): binds | binding (Cw10_C*03:04 (human)): binds | binding [2]: binds | binding (Cw17_C*17:01 (human)): binds | binding (Cw9_C*03:03 (human)): binds | binding (Cw12_C*12:03 (human)): binds | binding (Cw18_C*18:02 (human)): binds | binding (Cw10_C*03:02 (human)): binds | binding (Cw8_C*08:01 (human)): binds | binding (Cw1_C*01:02 (human)): binds | binding (B62,Bw6_B*15:01 (human)): no binding (tested: 10 µg/ml) | binding (B54,Bw6_B*54:01 (human)): no binding (tested: 10 µg/ml) | binding (B44,Bw4_B*44:03 (human)): no binding (tested: 10 µg/ml) | binding (B42,Bw6_B*42:01 (human)): no binding (tested: 10 µg/ml) | binding (B35,Bw6_B*35:01 (human)): no binding (tested: 10 µg/ml) | binding [3]: no binding (tested: 10 µg/ml) | binding (B51,Bw4_B*51:01 (human)): no binding (tested: 10 µg/ml) | binding (B65,Bw6_B*14:02 (human)): no binding (tested: 10 µg/ml) | binding (B72,Bw6_B*15:03 (human)): no binding (tested: 10 µg/ml) | binding (B71,Bw6_B*15:10 (human)): no binding (tested: 10 µg/ml) | binding (B78,Bw6_B*78:01 (human)): no binding (tested: 10 µg/ml) | binding (B8,Bw6_B*08:01 (human)): no binding (tested: 10 µg/ml) | binding (B45,Bw6_B*45:01 (human)): no binding (tested: 10 µg/ml) | binding (B61,Bw6_B*40:06 (human)): no binding (tested: 10 µg/ml) | binding (B38,Bw4_B*38:01 (human)): no binding (tested: 10 µg/ml) | binding (B57,Bw4_B*57:03 (human)): no binding (tested: 10 µg/ml) | binding (B41,Bw6_B*41:01 (human)): no binding (tested: 10 µg/ml) | binding (B61,Bw6_B*40:02 (human)): no binding (tested: 10 µg/ml) | binding (B81,Bw6_B*81:01 (human)): no binding (tested: 10 µg/ml) | binding (B18,Bw6_B*18:01 (human)): no binding (tested: 10 µg/ml) | binding (B37,Bw4_B*37:01 (human)): no binding (tested: 10 µg/ml) | binding (B44,Bw4_B*44:02 (human)): no binding (tested: 10 µg/ml) | binding (B64,Bw6_B*14:01 (human)): no binding (tested: 10 µg/ml) | binding (B49,Bw4_B*49:01 (human)): no binding (tested: 10 µg/ml) | binding (B63,Bw4_B*15:16 (human)): no binding (tested: 10 µg/ml) | binding (B56,Bw6_B*56:01 (human)): no binding (tested: 10 µg/ml) | binding (B59,Bw4_B*59:01 (human)): no binding (tested: 10 µg/ml) | binding (B77,Bw4_B*15:13 (human)): no binding (tested: 10 µg/ml) | binding (B82,Bw6_B*82:01 (human)): no binding (tested: 10 µg/ml) | binding (B39,Bw6_B*39:01 (human)): no binding (tested: 10 µg/ml) | binding (B58,Bw4_B*58:01 (human)): no binding (tested: 10 µg/ml) | binding (B60,Bw6_B*40:01 (human)): no binding (tested: 10 µg/ml) | binding (B48,Bw6_B*48:01 (human)): no binding (tested: 10 µg/ml) | binding (B53,Bw4_B*53:01 (human)): no binding (tested: 10 µg/ml) | binding (B50,Bw6_B*50:01 (human)): no binding (tested: 10 µg/ml) | binding (B75,Bw6_B*15:11 (human)): no binding (tested: 10 µg/ml) | binding (B27,Bw6_B*27:08 (human)): no binding (tested: 10 µg/ml) | binding (B13,Bw4_B*13:02 (human)): no binding (tested: 10 µg/ml) | binding (B75,Bw6_B*15:02 (human)): no binding (tested: 10 µg/ml) | binding (B67,Bw6_B*67:01 (human)): no binding (tested: 10 µg/ml) | binding (B51,Bw4_B*51:02 (human)): no binding (tested: 10 µg/ml) | binding (B52,Bw4_B*52:01 (human)): no binding (tested: 10 µg/ml) | binding (B55,Bw6_B*55:01 (human)): no binding (tested: 10 µg/ml) | binding [4]: no binding (tested: 10 µg/ml) | binding (B57,Bw4_B*57:01 (human)): no binding (tested: 10 µg/ml) | binding (B13,Bw4_B*13:01 (human)): no binding (tested: 10 µg/ml) | binding (B47,Bw4_B*47:01 (human)): no binding (tested: 10 µg/ml) | binding (B76,Bw6_B*15:12 (human)): no binding (tested: 10 µg/ml)
B1: CW6B175 (antibody, V domains shown)
VH: EVQLVESGGGLVQPGGSLRLSCAASGFTFTNYWMTWVRQAPGKGLEWVANIKQSGSEKYYVDSVKGRFTISRDNAKNSLYLQMNSLRAEDTAVYYCARTLYEWELEPFDYWGQGTLVTVSS
VL: SYVLTQPPSVSVAPGQTARITCGGNRIGSKSVHWYQQKPGQAPVLVVFDDSDRPSGIPERFSGSNSGITATLTISRVEAGDEADYYCQVWDSSNDHVVFGGGTKLTVL
